About 210 (0.4%) of roughly 52,000 sequences were called active.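 Rule for the calls: active = gene whose silencing raises cell survival under the drug, median off-target-corrected z-score across its silencing RNAs 2 or more; inactive = the rest.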 This is one part of the list.
assay: Resistance to Poly (ADP-Ribose) Polymerase inhibitor: Gene Identification via Genome-wide siRNA Screen; details: mouse BRCA2 R2336H ES cells, olaparib, CellTiter-Glo viability; hits give high values
Summary of the method: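 Mouse BRCA2 R2336H ES cells were reverse-transfected with siRNA (20 nM final), treated at 48 h with 500 nM olaparib, and read by CellTiter-Glo after 72 h. Scores: MAD-based z per siRNA, median per gene, seed off-target correction.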

| Sequence | z-score |
| --- | --- |
| CGGCGGUGUGUUGUUUUAGTT against 8430410A17Rik | inactive: 1.14 |
| GGAAAUCUCUGGGAUUGUATT against Rpa3 | inactive: -3.11 |
| GGAACAACAGGCAAUGAAUTT against C330011K17Rik | inactive: -1.2 |
| GGAGUUAGAGCUGAGGUUATT against Ela1 | inactive: -2.59 |
| GGAAUUUGUGACCAACUAUTT against 4921506I22Rik | inactive: -0.392 |
| GGAAAAAAGCAAGAAAGACTT against 4933424F08Rik | inactive: 0.147 |
| GGUAUUCUUUGAAGAAAACTT against Tbc1d14 | inactive: 0.446 |
| GGAAAAACUAUGUUGCUGATT against C78409 | inactive: 0.716 |
| CGGCACUCAACUCAGAUACTT against Commd1 | inactive: -0.3 |
| GGUAUUCAAUUGAUCGUCATT against Cdh11 | inactive: 1.18 |
| GGAAAAAAAUGCUGUAUACTT against Insm1 | inactive: 0.787 |
| GGACAUGCUGGGUGAAGAATT against Ikbkg | inactive: -2.31 |
| GGAGAUACGCAGAGUUUGATT against Sgk3 | inactive: 0.398 |
| CCUUCGUCGACAUUGCUGUTT against Zfp282 | inactive: 0.744 |
| GCCUGUCACCUGUAGCAACTT against Krtap12-1 | inactive: 0.404 |
| GGUUGCAUCUCUAGCUCCATT against Krt1-2 | inactive: -0.877 |
| GGAGGUCUGUCUGGAUCCATT against Cxcl5 | inactive: 0.551 |
| GGCUGUUACAUUCUAUAUUTT against Kif5c | inactive: 0.593 |
| GCAUCAUUCGUUAUGCAAUTT against Itgax | inactive: 1.47 |
| GCCGGUGAAGACCAUUCACTT against Paox | inactive: 0.219 |
| GGAGGACUUUGUGUCUUACTT against Pald | inactive: -1.23 |
| GGAUCUCGCUGGCAAUAAUTT against Gpr45 | inactive: -0.242 |
| CCUUUUAGGCUUCCAGAAUTT against 0610009O03Rik | inactive: 0.14 |
| GGCCGAGAAGAUCAAAGCATT against Mrpl12 | inactive: 0.175 |
| GGAAUUAUCUCACGGCCAGTT against Il17c | inactive: -0.501 |
| GCAAGGUGUUCUGACCCAUTT against Rps6 | inactive: -3.14 |
| GCCUUGCUGUCAAACCACUTT against Krtap9-1 | inactive: -0.132 |

Rewritten as comma-separated lines: part of the list above
Sequence,z-score
GGACAUGCUGGGUGAAGAATT against Ikbkg,inactive: -2.31
GGAGAUACGCAGAGUUUGATT against Sgk3,inactive: 0.398
CCUUCGUCGACAUUGCUGUTT against Zfp282,inactive: 0.744
GCCUGUCACCUGUAGCAACTT against Krtap12-1,inactive: 0.404
GGUUGCAUCUCUAGCUCCATT against Krt1-2,inactive: -0.877
GGAGGUCUGUCUGGAUCCATT against Cxcl5,inactive: 0.551

(cont.)

| Sequence | z-score |
| --- | --- |
| GCUCUGGAACAAUUCCUGCTT against Cstl1 | inactive: 0.946 |
| GGGACUUCAAUCACAUCAATT against Rpl9 | inactive: -3.07 |
| GGAUCAAAGCCGUUCUUUUTT against Foxq1 | inactive: 1.83 |
| GGACAAAAGUGAUGUUAAATT against Gabrb2 | inactive: -0.629 |
| GCAAGACAUUUUGAGAAGATT against 5033406L14Rik | inactive: -0.554 |
| GGCGCAAUGCUCAUGUGAATT against Gzmc | inactive: -0.0426 |
| GGCUUGAACACAAGAAAGCTT against Golph4 | inactive: 0.284 |
| GGCAUAAAGUUGUUUACAGTT against 3110006P09Rik | active: 3.24 |
| AGACUCUCUCUUGCACUAGTT against Retnla | inactive: -0.0408 |
| GGCCUUUAUUGACUCCAAGTT against Syn3 | inactive: 0.0662 |
| GGUCUUUCCAGAACAAAAATT against Rpa2 | inactive: -3.24 |
| CGAACACUCGUUAAAGAAATT against Krt1-23 | inactive: 0.184 |
| CCCAUGCACAUCAUGAGAATT against 4931429L15Rik | inactive: 0.161 |
| CCCACUACGUCAUACCACUTT against Olfr605 | inactive: 0.406 |
| CCGAUUCUGAGAGUAACAATT against Alx4 | inactive: 0.138 |
| GGAUCAAUUGGCACUAGACTT against 2210018M03Rik | inactive: -0.959 |
| CCCACUAUGAUCCACCUAGTT against Hnrph2 | inactive: -0.05 |
| GCUACACGAAGAGGAACUUTT against Prph1 | inactive: -0.296 |
| GGAAAAAUGGUCUGUAAAATT against Adck2 | inactive: -1.07 |
| GGUUCAUGUCAUCUUUAACTT against Calr | inactive: -0.87 |
| GGCUUUCAUAUUCUGGAAUTT against Gabrb1 | inactive: 0.417 |
| GGAACUUGGAAUUUAGUUGTT against Pla2g4b | inactive: 0.501 |
| GGAAUCGGAGUAGAAUCCGTT against Tcfl5 | inactive: 1.01 |
| UUGUCCUCACCUGUUUGUATT against Olfr748 | inactive: -1.41 |
| GGGUUGAUUGACAGGUAAATT against H2-Q10 | inactive: -0.71 |
| GGGUAUUCAUGAUGUCUUUTT against Kctd6 | inactive: 1.24 |
| CCAUGUGGUGAGGACUUCATT against Pkp4 | inactive: 0.581 |

| Sequence | z-score |
| --- | --- |
| GGCUUAUCAUAUGAAGACATT against Aplp2 | inactive: 1.33 |
| GGCAUCUGAUUUAAGUCCUTT against 9130019P20Rik | inactive: 0.483 |
| GCAGUGAAGUCCAAGUUAGTT against Pold3 | inactive: -2.67 |
| GGUGACACACUAGUAGACUTT against 2610207F23Rik | inactive: 0.58 |
| GGCUAAGGCUCAACUAUUGTT against BC034068 | inactive: -1.5 |
| GGAAGAACAAAGAAAGAAGTT against E230015L20Rik | inactive: 1.75 |
| GCCCGAGUUAGAGCAGUUATT against AI842396 | inactive: -1.12 |
| GGAGGUGAAGUAUUUAGGUTT against Ccm2 | inactive: 0.03 |
| GGAUAAAUGUGCAUCUUAGTT against Aasdhppt | inactive: -0.113 |
| GGAGGAAAUGAUGAUUUUCTT against Kbtbd2 | inactive: 0.686 |
| GCAUGCAUGCUAUUGUUUUTT against 4931431C16Rik | inactive: 0.447 |
| CCACCUUAACUGUUGCUUUTT against Mmp2 | inactive: 0.557 |
| GCAGUUAACUACGUUGCAATT against Zfp265 | inactive: -1.8 |
| CCAGAGUUUUAUAACGGAATT against Olfr1229 | inactive: 1.15 |
| GCUUCACUUCUACCCUAGATT against Il18bp | inactive: -1.5 |
| GCUAUUAUUGUACGUGCAATT against Emr1 | inactive: 1.17 |
| GCGAAUGAUUGCUUUCAAUTT against Inhbb | inactive: -0.308 |
| GCUCAUUGCACUAAAAGACTT against Tnnt1 | inactive: -0.497 |
| CGAGUGGCUUUUAAAAGGUTT against 2410193C02Rik | inactive: -0.156 |
| GGAACUGAUGAUGGACCAGTT against Slc4a1 | inactive: -0.192 |
| GCUAUGCAAAUGGUGUCAATT against Fcnb | inactive: 1.47 |
| GGAGAUUAUCACAACUAUUTT against 1200013B08Rik | inactive: -0.638 |
| GGAGUUUCGGGAGUUCAACTT against Jmjd2c | inactive: -0.411 |
| CCAUCACUAGUGAUCAUUATT against D930018N13 | inactive: -0.778 |
| GCGAGGUAUUUUCUUAGUATT against Yes | inactive: 0.421 |
| GGAACAAGAAGACUGUGAATT against Pcnt2 | inactive: -0.532 |
| GGUUGCUGUUUUGAUGACATT against Tff1 | inactive: -0.322 |

| Sequence | z-score |
| --- | --- |
| GGCUUUUUUCUGUCCCAAUTT against Clcn6 | inactive: -1.76 |
| GCAUCCACACGGUUAAUCUTT against Tmeff2 | inactive: 0.309 |
| GCAGAAAUUAACAAGUCUCTT against Kif2c | inactive: 0.837 |
| GGCAGAUUUGGGUAAAAUUTT against Eif2s3y | inactive: -3.57 |
| GCGAACCCUAAGUAAGAAGTT against 2610101N10Rik | inactive: 1.54 |
| GGGAUAUGAAUGGAUAUUCTT against Ptk9 | inactive: 0.0904 |
| GGAUCUCAUGGAGGAGAAUTT against D5Ertd593e | inactive: 0.251 |
| GGGUUUAUAAAACUGAAGUTT against Cav2 | inactive: 0.337 |
| GGAUGUUCUCAAACUACAATT against Aof1 | inactive: -0.56 |
| CCAUUGCUAUCAACACUAATT against Alox5 | inactive: 0.864 |
| GGCCAGAAUAAGUUAAAUGTT against 2610300B10Rik | inactive: -1.65 |
| GCUAUCUUGGUGGAUCUAGTT against Tubb5 | inactive: -2.06 |
| GGUUGUCUUUCAUCGACUCTT against Fbxo5 | inactive: 0.654 |
| GCUAAAGCGGAAACCUAAGTT against Whsc2 | inactive: 0.244 |
| CCUGUCACAGAUGUAUGUGTT against Rnf149 | inactive: 0.676 |
| GCUGGGCUACAAUACAUAUTT against Fgf3 | inactive: -0.696 |
| GGACACCACGGAGUAUUUUTT against Mgat3 | inactive: -0.197 |
| CGGCUAAAUGCAAGUAAAGTT against Rgma | inactive: -1.72 |
| GGAUUUGGAUUUGGAUUUUTT against Dsipi | inactive: -0.439 |
| GGGACUUCGCUAUGCAGUGTT against AW125391 | inactive: 1.99 |
| GCAUCUAGUGACUGUCAAUTT against Sbp | inactive: -0.27 |
| GGCAAACUCUUCCGAUGCUTT against 0610030H11Rik | inactive: 0.217 |
| GGCAACACCAUCACCGAGATT against Ndnl2 | inactive: 0.0835 |
| GGUGAGGUUAUUUCAAUACTT against 0610010F05Rik | inactive: -0.271 |

Random excerpt: three entries already listed.

| Sequence | z-score |
| --- | --- |
| GCAUCUAGUGACUGUCAAUTT against Sbp | inactive: -0.27 |
| GGUGAGGUUAUUUCAAUACTT against 0610010F05Rik | inactive: -0.271 |
| CCAUUGCUAUCAACACUAATT against Alox5 | inactive: 0.864 |

— PubChem BioAssay AID1347423 (Functional Genomics Laboratory (NCATS/FGL), 2020)
